# Values joined by “and” are separate entries in the source; they are usually repeats but may differ in a detail not shown here. Equal entries are not always repeated. In all, about 320,000 compounds went through this assay and about 22,000 (6.9%) were called active. Inconclusive results, whose numbers are uncertain, are shown with a selection of clear calls. Calls come from the whole dose curve; as a rule, active = well fitted inhibition curve with a large enough effect; inconclusive = small, poorly fitted or top-dose-only effect, or another doubt; inactive = no such curve, though single readings can be large or run the other way. Potencies of inconclusive entries are doubtful fits and often do not repeat.
# Test: Primary qHTS for delayed death inhibitors of the malarial parasite plastid, 96 hour incubation
# Details: P. falciparum luciferase reporter growth; series mostly up to 28.7 µM
# Method in brief: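 Delayed-death screen, second-generation endpoint: infected erythrocytes, 2% hematocrit, 0.05% parasitemia final; 96 hours at 37 C, 5% CO2; luciferase detection reagent; luminescence decrease equals reduced growth.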
# % is set by controls: 0 for no effect and ±100 for the full control effect; potency is the fitted concentration of half-maximal effect.
SMILES,Potency,"activity change, negative = inhibition"
CCCCc1nc2ccccc2c(=O)n1-c1ccccc1O,"inconclusive: 18.5 µM [inhibitor, single point]",–
Cc1ccc(N(C(=O)CCC(=O)Nc2nccs2)C(C(=O)NC(C)(C)C)c2ccc(O)cc2)cc1 (configuration not stated),active: 8.28 µM,–
CC(NC(=O)C1=CC=CN2CCS(=O)(=O)N=C12)c1ccc(Cl)cc1Cl (configuration not stated),"inconclusive: 18.5 µM [inhibitor, single point]",–
CCOc1ccc(CCNC(=O)COC(=O)c2cccc(N(C)C)c2)cc1OCC,inactive,–
CCOC(=O)CN1CC23C=CC(O2)C(C(=O)NC2CCCCC2)C3C1=O (configuration not stated),"inconclusive: 10.4 µM [inhibitor, partial curve]",–
O=C(NCC1CCCO1)c1sc2ccccc2c1Cl (configuration not stated),"inconclusive: 1.47 µM [inhibitor, partial curve, poor fit]",–
O=C(NC1CCCc2ccccc21)c1ccccc1Br (configuration not stated),"inconclusive: 4.15 µM [inhibitor, single point]",–
CC1CCCN(C(=O)c2ccc(-c3ccccc3Cl)o2)C1 (configuration not stated),inactive,–
O=C(CCCC1=NS(=O)(=O)c2ccccc2N1)N1CCN(c2ccc(Cl)cc2)CC1,"inconclusive: 18.5 µM [inhibitor, single point]",–
Cc1csc(NC(=O)c2ccc(S(=O)(=O)N(C)c3ccccc3)cc2)n1,"inconclusive: 11.7 µM [inhibitor, single point]",–
CCCCN(CC)C(=O)c1ccc(-c2ccccc2)cc1,inactive,–
CCCCOC(=O)Nc1cc(C(=O)OC)ccc1C(=O)OC,"inconclusive: 2.94 µM [inhibitor, partial curve, poor fit]",–
Cc1ccccc1Cn1ccc(NC(=O)c2nn3cccnc3c2Cl)n1,–,inactive: -44.7% [at 5.75 µM]
CCc1nc(SCC(=O)O)c(C#N)c2c1CCCC2,"inconclusive: 18.5 µM [inhibitor, single point]",–
CS(=O)(=O)c1nc(S(=O)(=O)c2ccc(Cl)cc2)c(N2CCC(C(N)=O)CC2)s1,"inconclusive: 11.7 µM [inhibitor, partial curve, poor fit]",–
O=C(Nc1nc2ccccc2[nH]1)c1ccccc1F,active: 10.4 µM,–
CC(C)(C)c1cc(/C=N/NC(=O)C[n+]2ccccc2)cc(C(C)(C)C)c1O,inactive,–
Cc1ccccc1CSc1nc2ccccc2c(=O)n1C,"inconclusive: 11.7 µM [inhibitor, single point]",–
COc1ccc(NC(=O)C=C(C)C)cc1Cl,"inconclusive: 0.0029 µM [inhibitor, full curve, poor fit]",–
COc1ccc(CNC(=O)CN2C(=O)NC(C)(c3ccc(C(C)(C)C)cc3)C2=O)cc1 (configuration not stated),inactive,–
Cc1ccc(-c2cnc(N)n2C)cc1C,active: 4.65 µM,–
O=C(Nc1ccc(-n2cccc2)cc1)C1CC1,inactive,–
COCCOc1ccc(C(F)(F)F)cc1NC(=O)CN1C(=O)NC2(CCc3ccccc32)C1=O (configuration not stated),"inconclusive: 18.5 µM [inhibitor, single point]",–

# Reprinted at random: 2 compounds from above.
SMILES,Potency,"activity change, negative = inhibition"
CC(NC(=O)C1=CC=CN2CCS(=O)(=O)N=C12)c1ccc(Cl)cc1Cl (configuration not stated),"inconclusive: 18.5 µM [inhibitor, single point]",–
Cc1ccccc1CSc1nc2ccccc2c(=O)n1C,"inconclusive: 11.7 µM [inhibitor, single point]",–

# Whole records as entered above:
# CC(C)(C)c1cc(/C=N/NC(=O)C[n+]2ccccc2)cc(C(C)(C)C)c1O is listed with Potency: inactive
# Cc1ccc(N(C(=O)CCC(=O)Nc2nccs2)C(C(=O)NC(C)(C)C)c2ccc(O)cc2)cc1 (configuration not stated) is listed with Potency: active: 8.28 µM

# (listing goes on)

SMILES,Potency,"activity change, negative = inhibition"
O=c1oc2c(CN3CCOCC3)c(O)ccc2c2ccccc12,"inconclusive: 0.0828 µM [inhibitor, full curve, poor fit]",–
N#Cc1cc2cc3c(cc2nc1SCC(=O)OC1CCCCC1)OCO3,"inconclusive: 7.38 µM [inhibitor, partial curve]",–
CCC(=O)N1CCc2cc(S(=O)(=O)NC(C(=O)NCc3ccc(F)cc3)C(C)C)ccc21 (configuration not stated),"inconclusive: 18.5 µM [inhibitor, single point]",–
Cc1cc(-n2c(C)cc(C(=S)N3CCOCC3)c2C)ccc1Br,"inconclusive: 9.28 µM [inhibitor, partial curve]",–
O=C(c1ccc(C(F)(F)F)cc1)C1CCCN(C(=O)CN2CCCC2=O)C1 (configuration not stated),inactive,–
COc1ccc(Cc2nnc(NC(=O)C3CCCO3)s2)cc1 (configuration not stated),"inconclusive: 5.22 µM [inhibitor, single point]",–
COc1ccc(C(CNC(=O)c2cccc(NS(=O)(=O)c3ccc(Br)cc3)c2)N(C)C)cc1 (configuration not stated),"inconclusive: 13.1 µM [inhibitor, single point]",–
Nc1nonc1-n1nnc(C(=O)N/N=C/c2cccnc2)c1CSC1=NCCS1,"inconclusive: 18.5 µM [inhibitor, single point]",–
COc1ccc(Cl)cc1NC(=O)c1nnn(CC(=O)Nc2ccc(OC)c(OC)c2)c1N,"inconclusive: 10.4 µM [inhibitor, single point]",–
COc1ccc(C(CNC(=O)c2oc3ccc(OC)cc3c2C)N2CCCC2)cc1 (configuration not stated),active: 9.28 µM,–
C/C(=N\Nc1nc2ccccc2[nH]1)c1ccccn1,"inconclusive: 0.586 µM [inhibitor, full curve, poor fit]",–
CN(c1cccc(NC(=O)CN(c2cccc(Cl)c2)S(=O)(=O)c2ccccc2)c1)S(C)(=O)=O,"inconclusive: 18.5 µM [inhibitor, single point]",–
CCn1c(=O)cc(O)c2ccccc21,"inconclusive: 18.5 µM [inhibitor, single point]",–
CCN(CC)CCNC(=O)C(C)c1nn(CC)c(=O)c2ccccc12 (configuration not stated),"inconclusive: 13.1 µM [inhibitor, partial curve, poor fit]",–
COc1cc(/C=N/NC(=O)c2ccc(N(C)S(=O)(=O)c3ccccc3)cc2)cc(OC)c1OC,"inconclusive: 2.62 µM [inhibitor, partial curve, poor fit]",–
Cn1c(N)c(C(=O)COC(=O)C2(c3cccc(F)c3)CCCC2)c(=O)n(C)c1=O,active: 13.1 µM,–
CCOc1cc(C(=O)OCC(=O)Nc2ncc(Cl)c(C)c2Cl)ccc1OCC(=O)N1CCOCC1,"inconclusive: 13.1 µM [inhibitor, single point]",–
COC(=O)c1[nH]c2cc(OC)ccc2c1NC(=O)CN1CCC(C(N)=O)(N2CCCCC2)CC1,"inconclusive: 18.5 µM [inhibitor, single point]",–
O=S(=O)(c1ccc(F)cc1)N1CCC(N2CCCC2)CC1,"inconclusive: 11.7 µM [inhibitor, single point]",–
Cc1ccc(S(=O)(=O)CCc2nnc(N)s2)cc1,"inconclusive: 14.7 µM [inhibitor, single point]",–
CC(C)CCOP(=O)(c1ccc(N(C)C)cc1)C(O)c1c(Cl)cccc1Cl (configuration not stated),active: 11.7 µM,–
O=C(NN=C1CCCCCC1)c1cc2ccccc2cc1O,inactive,–
O=C(NNC1=Nc2ccccc2SC1)c1ccccc1F,"inconclusive: 11.7 µM [inhibitor, single point]",–

SMILES,Potency,"activity change, negative = inhibition"
CCN(CC)Cc1cc(Nc2ccnc3cc(Cl)ccc23)ccc1O,active: 12.8 nM and active: 2.9 nM and active: 3.3 nM,–
COc1ccc(-c2ccccc2)cc1NCc1ccccc1C,"inconclusive: 4.15 µM [inhibitor, partial curve, poor fit]",–
Cc1oc2c(c(=O)c1C)C(=O)CC(c1ccccc1)C2 (configuration not stated),"inconclusive: 2.62 µM [inhibitor, partial curve, poor fit]",–
Nc1[nH]n(-c2ccccc2)c(=O)c1N=Nc1ccccc1[N+](=O)[O-],"inconclusive: 18.5 µM [inhibitor, single point]",–
COc1cccc(C2C(C(=O)Nc3ccccc3)=C(C)N=c3s/c(=C/c4ccc(OCC(=O)O)cc4)c(=O)n32)c1 (configuration not stated),active: 1.17 µM,–
CC(=O)N(c1ccc2oc(=O)sc2c1)S(=O)(=O)c1ccc(C)cc1,"inconclusive: 4.15 µM [inhibitor, single point]",–
O=C(Oc1ccccc1OC(=O)N1CCOCC1)N1CCOCC1,inactive,–
Cn1nccc1C(=O)Nc1ccccc1C(=O)O,"inconclusive: 11.7 µM [inhibitor, partial curve]",–
O=C(COc1ccccc1)N1CCN(S(=O)(=O)Cc2ccccc2)CC1,"inconclusive: 0.294 µM [inhibitor, full curve, poor fit]",–
O=C(CN1CCc2ccccc21)NC(=O)NCc1ccccc1,"inconclusive: 14.7 µM [inhibitor, partial curve]",–
CCOc1cc(C2C(C#N)=C(N)Oc3n[nH]c(CC)c32)ccc1OCCN1CCOCC1 (configuration not stated),active: 9.28 µM,–
Cc1onc(-c2ccccc2)c1C(=O)Nc1ccc(Cl)c(S(=O)(=O)N2CCOCC2)c1,"inconclusive: 14.7 µM [inhibitor, partial curve, poor fit]",–
Fc1cnc(N2CCOCC2)nc1NCc1ccccc1,active: 2.94 µM,–
O=C(c1ccc(Cn2c(=S)[nH]c3ccc(N4CCOCC4)cc3c2=O)cc1)N1CCN(c2ccc(F)cc2)CC1,"inconclusive: 16.5 µM [inhibitor, single point]",–
COc1ccc(OC(=O)CCc2c[nH]c3ccccc23)cc1,"inconclusive: 18.5 µM [inhibitor, single point]",–
CCOC(=O)c1c(C)c(C(=O)NCCc2ccc(S(N)(=O)=O)cc2)c(C)n1CC,"inconclusive: 14.7 µM [inhibitor, single point]",–
O=C(O)c1ccc(N=NN2CCOCC2)cc1,"inconclusive: 11.7 µM [inhibitor, single point]",–
COc1cccc(-n2c(SCC(=O)NCCC3=CCCCC3)nc3n[nH]c(C)c3c2=N)c1,"inconclusive: 5.86 µM [inhibitor, partial curve]",–
O=C(Nc1ccc(C(F)(F)F)cc1)C1=NN(C2CCS(=O)(=O)C2)C(=O)CC1 (configuration not stated),"inconclusive: 3.29 µM [inhibitor, single point]",–
CC(C)C12CN3CCN(CC(C3)C1O)C2 (configuration not stated),inactive,–
O=C(NCCc1ccccn1)c1ccc(S(=O)(=O)N2CCCCCC2)cc1,"inconclusive: 1.85 µM [inhibitor, full curve]",–
